Source: the supplement of paper PMC12593923

Assays:
Test in all cases: drug sensitivity score (DSS2, cytotoxicity, CellTox Green); higher = more cytotoxic / more sensitive; extreme values may be limits of the assay
Settings in all cases: 72 h; doses 0.5, 1, 5 µM
Kuramochi = test system: Kuramochi
OVCAR4 = test system: OVCAR4
OVCAR3 = test system: OVCAR3

C[C@@H]1CC[C@H]2[C@@H](C)C(=O)O[C@@H]3O[C@@]4(C)CC[C@@H]1[C@]32OO4 [Artemisinin]
drug sensitivity score (Kuramochi): 0 DSS
drug sensitivity score (OVCAR4): 0 DSS
drug sensitivity score (OVCAR3): 0 DSS

CCN1CCN(Cc2ccc(Nc3ncc(F)c(-c4cc(F)c5nc(C)n(C(C)C)c5c4)n3)nc2)CC1 [Abemaciclib (methanesulfonate)]
drug sensitivity score (Kuramochi): 0 DSS
drug sensitivity score (OVCAR4): 0 DSS
drug sensitivity score (OVCAR3): 0 DSS

CC1=C(/C=C/C(C)=C/C=C/C(C)=C/C(=O)O)C(C)(C)CCC1 [Retinoic acid]
drug sensitivity score (Kuramochi): 0 DSS
drug sensitivity score (OVCAR4): 0 DSS
drug sensitivity score (OVCAR3): 2 DSS

Nc1ncn([C@@H]2O[C@H](CO)[C@@H](O)[C@H]2O)c(=O)n1 [5-Azacytidine]
drug sensitivity score (Kuramochi): 0 DSS
drug sensitivity score (OVCAR4): 0 DSS
drug sensitivity score (OVCAR3): 0 DSS

Nc1nc2[nH]cc(CCc3ccc(C(=O)N[C@@H](CCC(=O)O)C(=O)O)cc3)c2c(=O)[nH]1 [Pemetrexed]
drug sensitivity score (Kuramochi): 0 DSS
drug sensitivity score (OVCAR4): 0 DSS
drug sensitivity score (OVCAR3): 0 DSS

COc1cc2c(cc1OC(C)C)[C@H](c1ccc(Cl)cc1)N(c1ccc(N(C)C[C@H]3CC[C@H](N4CCN(C)C(=O)C4)CC3)cc1)C(=O)C2 [NVP-CGM097 (sulfate)]
drug sensitivity score (Kuramochi): 0 DSS
drug sensitivity score (OVCAR4): 0 DSS
drug sensitivity score (OVCAR3): 0 DSS

CC1=NN(c2ccccc2)C(=O)C1 [Edaravone]
drug sensitivity score (Kuramochi): 0 DSS
drug sensitivity score (OVCAR4): 0 DSS
drug sensitivity score (OVCAR3): 0 DSS

NCCC(O)(P(=O)(O)O)P(=O)(O)O [Pamidronic acid]
drug sensitivity score (Kuramochi): 0 DSS
drug sensitivity score (OVCAR4): 0 DSS
drug sensitivity score (OVCAR3): 0 DSS

N=C(N)NC(=N)NCCc1ccccc1 [Phenformin (hydrochloride)]
drug sensitivity score (Kuramochi): 0 DSS
drug sensitivity score (OVCAR4): 0 DSS
drug sensitivity score (OVCAR3): 0 DSS

CC(C)c1c(C(=O)Nc2ccccc2)c(-c2ccccc2)c(-c2ccc(F)cc2)n1CC[C@@H](O)C[C@@H](O)CC(=O)O [Atorvastatin]
drug sensitivity score (Kuramochi): 0 DSS
drug sensitivity score (OVCAR4): 0 DSS
drug sensitivity score (OVCAR3): 0 DSS

CC(C(=O)O)c1ccc(-c2ccccc2)c(F)c1 (centres undefined) [Flurbiprofen]
drug sensitivity score (Kuramochi): 0 DSS
drug sensitivity score (OVCAR4): 0 DSS
drug sensitivity score (OVCAR3): 0 DSS

COc1c(OCCCN2CCOCC2)ccc2c3n(c(=NC(=O)c4cnc(N)nc4)nc12)CCN3 [Copanlisib (dihydrochloride)]
drug sensitivity score (Kuramochi): 3.3 DSS
drug sensitivity score (OVCAR4): 2.6 DSS
drug sensitivity score (OVCAR3): 3 DSS

Cc1cnc(NC(=O)C2=C(O)c3ccccc3S(=O)(=O)N2C)s1 [Meloxicam]
drug sensitivity score (Kuramochi): 0 DSS
drug sensitivity score (OVCAR4): 0 DSS
drug sensitivity score (OVCAR3): 0 DSS

CC(C)NC(=O)COc1cccc(-c2nc(Nc3ccc4[nH]ncc4c3)c3ccccc3n2)c1 [Belumosudil]
drug sensitivity score (Kuramochi): 0 DSS
drug sensitivity score (OVCAR4): 1.9 DSS
drug sensitivity score (OVCAR3): 0.2 DSS

CCN(CC)CC(=O)Nc1c(C)cccc1C [Lidocaine (hydrochloride)]
drug sensitivity score (Kuramochi): 0 DSS
drug sensitivity score (OVCAR4): 0 DSS
drug sensitivity score (OVCAR3): 0 DSS

CC(C)OC(=O)C(C)(C)Oc1ccc(C(=O)c2ccc(Cl)cc2)cc1 [Fenofibrate]
drug sensitivity score (Kuramochi): 0 DSS
drug sensitivity score (OVCAR4): 0 DSS
drug sensitivity score (OVCAR3): 0 DSS

CN(C)/N=N/c1[nH]cnc1C(N)=O [Dacarbazine]
drug sensitivity score (Kuramochi): 0 DSS
drug sensitivity score (OVCAR4): 0 DSS
drug sensitivity score (OVCAR3): 0.2 DSS

COC1=C[C@@H]2[C@@H]3Cc4ccc(OC)c(O)c4[C@]2(CCN3C)CC1=O [Sinomenine hydrochloride]
drug sensitivity score (Kuramochi): 0 DSS
drug sensitivity score (OVCAR4): 0 DSS
drug sensitivity score (OVCAR3): 0 DSS

Counter-ions that a name gives are not always drawn. Some well-known active drugs show little effect in this data set, so a weak value is uncertain.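 The three lines are all high-grade serous ovarian cancer cells with differing chemosensitivity; OVCAR3 is described as chemosensitive. Toxicity was normalized between DMSO vehicle wells and fully lysed wells, the score comes from a fitted multi-dose response curve, and a score above 5 was counted as drug sensitivity.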
